The list is a part of this screen's results and no random one: it is rich in T/C values a quarter to a half above the control, in often repeated tests (any T/C) and in doses without a T/C. Other doses and runs of a compound stand elsewhere. T/C: endpoint of the treated group in % of that of the vehicle group. Some doses have a count of surviving animals in place of a T/C: the source files T/C as zero there, which appears to mark a toxic dose or a test without result, not a measured value. Some survivor counts are full or nearly so, which does not show that the dose was tolerated: the source hardly ever lists a survival T/C far under the control, and the zero likely stands for such cases as well. Counts of survivors are from the toxicity check (mostly the fifth day) where no day follows; animals may have died later. Schedule codes are those of the source, taken here to give the interval after Q, in days (D) or hours (H), and the number of doses after X. Some schedule codes hold Z or #, which are not explained here. Some entries hold several experiments; the results are listed from low to high. Where survival is the endpoint, this PubChem deposit counts one and a half times the control or more as active, and values a quarter to a half above the control carry no call in these data; other NCI protocols may use other cut-offs.
Test system: L1210 leukemia ip in BDF1 mice, survival T/C
Assay: NCI In Vivo Anticancer Drug Screen. Data for tumor model L1210 Leukemia (intraperitoneal) in B6D2F1 (BDF1) mice
Conditions: higher T/C = longer survival
[1] = T/C endpoint: mean survival time, dose: 400.0 mg/kg/injection, schedule: Q04DX002 (ip), vehicle: Klucel (hydroxypropylcellulose) (HPC)
[2] = T/C endpoint: mean survival time, dose: 60.0 mg/kg/injection, schedule: Q01DX001 (ip), vehicle: carboxymethylcellulose (CMC)
[3] = T/C endpoint: mean survival time, dose: 75.0 mg/kg/injection, schedule: Q01DX001 (ip), vehicle: carboxymethylcellulose (CMC)
[4] = T/C endpoint: mean survival time, dose: 150.0 mg/kg/injection, schedule: Q01DX001 (ip), vehicle: carboxymethylcellulose (CMC)
[5] = T/C endpoint: mean survival time, dose: 300.0 mg/kg/injection, schedule: Q01DX001 (ip), vehicle: carboxymethylcellulose (CMC)

O=NN(CCCl)C(=O)NC1CCC(=O)NC1=O (centres undefined)
T/C (T/C endpoint: mean survival time, dose: 4.0 mg/kg/injection, schedule: Q01DX001 (ip), vehicle: other): 130 % of control
T/C (T/C endpoint: mean survival time, dose: 31.0 mg/kg/injection, schedule: Q01DX001 (ip), vehicle: other): 135 % of control
survivor count (T/C endpoint: mean survival time, dose: 62.0 mg/kg/injection, schedule: Q01DX001 (ip), vehicle: other): 6 of 6
survivor count (T/C endpoint: mean survival time, dose: 125.0 mg/kg/injection, schedule: Q01DX001 (ip), vehicle: other): 6 of 6
survivor count (T/C endpoint: mean survival time, dose: 250.0 mg/kg/injection, schedule: Q01DX001 (ip), vehicle: other): 0 of 6
survivor count (T/C endpoint: mean survival time, dose: 375.0 mg/kg/injection, schedule: Q01DX001 (ip), vehicle: other): 0 of 6
survivor count (T/C endpoint: mean survival time, dose: 500.0 mg/kg/injection, schedule: Q01DX001 (ip), vehicle: other): 0 of 6
survivor count (T/C endpoint: mean survival time, dose: 750.0 mg/kg/injection, schedule: Q01DX001 (ip), vehicle: other): 0 of 6
T/C (T/C endpoint: median survival time, dose: 2.5 mg/kg/injection, schedule: Q01DX001 (ip), vehicle: other): 143 % of control
T/C (T/C endpoint: median survival time, dose: 2.5 mg/kg/injection, schedule: Q01DX001 (ip), vehicle: saline): 134 % of control

CCSc1nc(C)cc(Cl)n1
survivor count (T/C endpoint: mean survival time, dose: 400.0 mg/kg/injection, schedule: Q04DX003 (ip), vehicle: saline with Tween-80): 4 of 6

CCOc1ccc(/C=N/NC(=O)c2cccc3ccccc23)cc1OCC
survivor count (T/C endpoint: mean survival time, dose: 200.0 mg/kg/injection, schedule: Q01DX001 (ip), vehicle: saline): 4 of 4

O=C(O)c1c(-c2ccccc2)oc(-c2ccccc2)c1C(=O)O
survivor count (T/C endpoint: mean survival time, dose: 400.0 mg/kg/injection, schedule: Q04DX002 (ip), vehicle: saline): 3 of 3

CCCCCCCCCCCCCCCCNC(=S)NCCCCCCCCCCCCCCCC
survivor count (T/C endpoint: mean survival time, dose: 100.0 mg/kg/injection, schedule: Q04DX002 (ip), vehicle: Klucel (hydroxypropylcellulose) (HPC)): 3 of 3
survivor count (T/C endpoint: mean survival time, dose: 200.0 mg/kg/injection, schedule: Q04DX002 (ip), vehicle: Klucel (hydroxypropylcellulose) (HPC)): 3 of 3
survivor count [1]: 3 of 3

O=C([S][Pb]([c]1ccccc1)([c]1ccccc1)[c]1ccccc1)c1ccccc1
survivor count (T/C endpoint: mean survival time, dose: 8.0 mg/kg/injection, schedule: Q01DX009 (ip), vehicle: Klucel (hydroxypropylcellulose) (HPC)): 0 of 6
survivor count (T/C endpoint: mean survival time, dose: 11.0 mg/kg/injection, schedule: Q01DX009 (ip), vehicle: Klucel (hydroxypropylcellulose) (HPC)): 0 of 6
survivor count (T/C endpoint: mean survival time, dose: 18.0 mg/kg/injection, schedule: Q01DX009 (ip), vehicle: Klucel (hydroxypropylcellulose) (HPC)): 0 of 6
survivor count (T/C endpoint: mean survival time, dose: 18.0 mg/kg/injection, schedule: Q04DX003 (ip), vehicle: Klucel (hydroxypropylcellulose) (HPC)): 4 of 6
survivor count (T/C endpoint: mean survival time, dose: 27.0 mg/kg/injection, schedule: Q01DX009 (ip), vehicle: Klucel (hydroxypropylcellulose) (HPC)): 0 of 6
survivor count (T/C endpoint: mean survival time, dose: 27.0 mg/kg/injection, schedule: Q04DX003 (ip), vehicle: Klucel (hydroxypropylcellulose) (HPC)): 4 of 6

Cc1ccc([P+](Cc2ccccc2)(c2ccccc2)c2cccc3ccccc23)cc1 (centres undefined)
survivor count [2]: 1 of 6
survivor count [3]: 0 of 6
survivor count [4]: 0 of 6
survivor count [5]: 0 of 6

Cc1cccc(C(=O)NNC(=O)c2cccc(C)c2)c1
survivor count (T/C endpoint: mean survival time, dose: 400.0 mg/kg/injection, schedule: Q01DX009 (ip), vehicle: Klucel (hydroxypropylcellulose) (HPC)): 2 of 6

Nc1ncnc(N)c1NC(=O)c1cccc(Br)c1
survivor count (T/C endpoint: mean survival time, dose: 50.0 mg/kg/injection, schedule: Q04DX003 (ip), vehicle: saline with Tween-80): 1 of 6
survivor count (T/C endpoint: mean survival time, dose: 100.0 mg/kg/injection, schedule: Q04DX003 (ip), vehicle: saline with Tween-80): 0 of 6

O=C(Nc1cccc(Cl)c1)Nc1cccc(C(F)(F)F)c1
survivor count (T/C endpoint: mean survival time, dose: 200.0 mg/kg/injection, schedule: Q01DX015 (ip), vehicle: carboxymethylcellulose (CMC)): 2 of 6
survivor count (T/C endpoint: mean survival time, dose: 300.0 mg/kg/injection, schedule: Q01DX015 (ip), vehicle: carboxymethylcellulose (CMC)): 2 of 6
survivor count (T/C endpoint: mean survival time, dose: 400.0 mg/kg/injection, schedule: Q01DX015 (ip), vehicle: carboxymethylcellulose (CMC)): 1 of 6

NC(=O)c1ccc(N)nc1
T/C (T/C endpoint: mean survival time, dose: 50.0 mg/kg/injection, schedule: Q01DX001 (ip), vehicle: carboxymethylcellulose (CMC)): 132 % of control
survivor count (T/C endpoint: mean survival time, dose: 200.0 mg/kg/injection, schedule: Q01DX001 (ip), vehicle: carboxymethylcellulose (CMC)): 1 of 4

CC1(C)N=C(N)N=C(N)N1c1cccc(C(=O)c2ccccc2)c1
survivor count (T/C endpoint: mean survival time, dose: 100.0 mg/kg/injection, schedule: Q01DX001 (ip), vehicle: saline with Tween-80): 1 of 6

N#CCCN(C(=O)Nc1cccc(C(F)(F)F)c1)C1CCCCC1
survivor count (T/C endpoint: mean survival time, dose: 200.0 mg/kg/injection, schedule: Q04DX003 (ip), vehicle: carboxymethylcellulose (CMC)): 3 of 3
survivor count (T/C endpoint: mean survival time, dose: 400.0 mg/kg/injection, schedule: Q01DX009 (ip), vehicle: carboxymethylcellulose (CMC)): 6 of 6
survivor count (T/C endpoint: mean survival time, dose: 400.0 mg/kg/injection, schedule: Q04DX002 (ip), vehicle: carboxymethylcellulose (CMC)): 6 of 6
survivor count (T/C endpoint: mean survival time, dose: 400.0 mg/kg/injection, schedule: Q04DX003 (ip), vehicle: carboxymethylcellulose (CMC)): 3 of 3

CCCNC(C)(C)C(SSS)c1cccs1 (centres undefined)
survivor count (T/C endpoint: mean survival time, dose: 400.0 mg/kg/injection, schedule: Q04DX003 (ip), vehicle: alcohol): 4 of 6

[I][Pb]([c]1ccccc1)([c]1ccccc1)[c]1ccccc1
survivor count (T/C endpoint: mean survival time, dose: 50.0 mg/kg/injection, schedule: Q04DX003 (ip), vehicle: Klucel (hydroxypropylcellulose) (HPC)): 0 of 6
survivor count (T/C endpoint: mean survival time, dose: 100.0 mg/kg/injection, schedule: Q04DX003 (ip), vehicle: Klucel (hydroxypropylcellulose) (HPC)): 0 of 6
survivor count (T/C endpoint: mean survival time, dose: 200.0 mg/kg/injection, schedule: Q04DX003 (ip), vehicle: Klucel (hydroxypropylcellulose) (HPC)): 0 of 6
survivor count (T/C endpoint: mean survival time, dose: 400.0 mg/kg/injection, schedule: Q04DX003 (ip), vehicle: Klucel (hydroxypropylcellulose) (HPC)): 0 of 6

CCCCCC(Oc1ccc(Cl)cc1C)C(=O)O (centres undefined)
survivor count [1]: 3 of 3

O[C@H]1[C@H]2c3cc4c(cc3CN3CCC(=C[C@@H]1O)[C@H]23)OCO4
survivor count (T/C endpoint: mean survival time, dose: 50.0 mg/kg/injection, schedule: Q01DX Z (ip), vehicle: steroid suspending solution): 0 of 4
survivor count (T/C endpoint: mean survival time, dose: 100.0 mg/kg/injection, schedule: Q01DX Z (ip), vehicle: steroid suspending solution): 1 of 4
survivor count (T/C endpoint: mean survival time, dose: 125.0 mg/kg/injection, schedule: Q01DX Z (ip), vehicle: steroid suspending solution): 1 of 4 and 4 of 4

CCS(=O)(=O)Nc1ccc(Nc2c3ccccc3nc3ccccc23)c(OC)c1
T/C (T/C endpoint: mean survival time, dose: 1.25 mg/kg/injection, schedule: Q01DX009 (ip), vehicle: Klucel (hydroxypropylcellulose) (HPC)): 133 % of control
T/C (T/C endpoint: mean survival time, dose: 1.25 mg/kg/injection, schedule: Q01DX009 (ip), vehicle: saline): 130 % of control
T/C (T/C endpoint: mean survival time, dose: 2.5 mg/kg/injection, schedule: Q01DX009 (ip), vehicle: saline): 142 % of control

CC1CC(C)(C)NC(=S)O1 (centres undefined)
survivor count [2]: 1 of 6
survivor count [3]: 0 of 6
survivor count [4]: 0 of 6
survivor count [5]: 0 of 6

Nc1ncnc(Nc2ccccc2[N+](=O)[O-])c1[N+](=O)[O-]
survivor count (T/C endpoint: mean survival time, dose: 100.0 mg/kg/injection, schedule: Q01DX001 (ip), vehicle: Klucel (hydroxypropylcellulose) (HPC)): 3 of 6
survivor count (T/C endpoint: mean survival time, dose: 200.0 mg/kg/injection, schedule: Q01DX001 (ip), vehicle: Klucel (hydroxypropylcellulose) (HPC)): 1 of 6
survivor count (T/C endpoint: mean survival time, dose: 400.0 mg/kg/injection, schedule: Q01DX001 (ip), vehicle: Klucel (hydroxypropylcellulose) (HPC)): 0 of 6

C/C=N\NC(N)=O
survivor count (T/C endpoint: mean survival time, dose: 100.0 mg/kg/injection, schedule: Q04DX003 (ip), vehicle: saline): 0 of 6 and 1 of 6
survivor count (T/C endpoint: mean survival time, dose: 200.0 mg/kg/injection, schedule: Q04DX003 (ip), vehicle: saline): 0 of 6
survivor count (T/C endpoint: mean survival time, dose: 400.0 mg/kg/injection, schedule: Q04DX003 (ip), vehicle: saline): 0 of 6

Cn1cc(NC(=O)c2cc(NC(=O)c3cc(NC=O)cn3C)cn2C)cc1C(=O)NCCC(=N)N
survivor count (T/C endpoint: mean survival time, dose: 100.0 mg/kg/injection, schedule: Q01DX009 (ip), vehicle: saline): 6 of 6
survivor count (T/C endpoint: mean survival time, dose: 200.0 mg/kg/injection, schedule: Q01DX009 (ip), vehicle: saline): 2 of 6
survivor count (T/C endpoint: mean survival time, dose: 400.0 mg/kg/injection, schedule: Q01DX009 (ip), vehicle: saline): 0 of 6
